Laboratory results as given in publication PMC12084338.

Sequences of proteins named here, by UniProt entry; tags and fusion partners are left off.
UniProt P16615: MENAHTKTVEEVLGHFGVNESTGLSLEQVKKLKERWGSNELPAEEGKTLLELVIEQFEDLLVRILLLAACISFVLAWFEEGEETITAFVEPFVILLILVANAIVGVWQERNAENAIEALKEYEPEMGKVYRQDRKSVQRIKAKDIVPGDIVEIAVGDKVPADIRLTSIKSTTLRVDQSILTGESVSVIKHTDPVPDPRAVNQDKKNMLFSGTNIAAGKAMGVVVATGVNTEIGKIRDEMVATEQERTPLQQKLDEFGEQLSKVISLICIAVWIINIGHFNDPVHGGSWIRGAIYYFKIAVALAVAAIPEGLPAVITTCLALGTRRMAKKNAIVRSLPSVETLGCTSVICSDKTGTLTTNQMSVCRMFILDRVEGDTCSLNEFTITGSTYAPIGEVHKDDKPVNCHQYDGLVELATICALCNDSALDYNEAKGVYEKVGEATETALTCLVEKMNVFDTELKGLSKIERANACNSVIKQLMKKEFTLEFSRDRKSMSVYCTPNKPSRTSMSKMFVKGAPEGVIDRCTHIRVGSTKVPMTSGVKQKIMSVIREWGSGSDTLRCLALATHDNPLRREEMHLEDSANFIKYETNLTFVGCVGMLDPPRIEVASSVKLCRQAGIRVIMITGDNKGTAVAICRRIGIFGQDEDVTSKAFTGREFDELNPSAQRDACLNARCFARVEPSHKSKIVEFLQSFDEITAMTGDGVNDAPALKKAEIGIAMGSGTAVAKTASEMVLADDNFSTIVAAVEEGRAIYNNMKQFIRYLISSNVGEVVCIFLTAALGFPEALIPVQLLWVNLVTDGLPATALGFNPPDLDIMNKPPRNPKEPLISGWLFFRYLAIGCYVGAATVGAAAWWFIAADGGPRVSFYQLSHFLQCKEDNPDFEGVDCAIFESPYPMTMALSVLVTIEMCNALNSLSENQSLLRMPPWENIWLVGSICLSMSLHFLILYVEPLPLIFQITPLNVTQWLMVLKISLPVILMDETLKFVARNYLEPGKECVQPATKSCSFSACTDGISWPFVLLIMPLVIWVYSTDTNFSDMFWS
UniProt Q92736: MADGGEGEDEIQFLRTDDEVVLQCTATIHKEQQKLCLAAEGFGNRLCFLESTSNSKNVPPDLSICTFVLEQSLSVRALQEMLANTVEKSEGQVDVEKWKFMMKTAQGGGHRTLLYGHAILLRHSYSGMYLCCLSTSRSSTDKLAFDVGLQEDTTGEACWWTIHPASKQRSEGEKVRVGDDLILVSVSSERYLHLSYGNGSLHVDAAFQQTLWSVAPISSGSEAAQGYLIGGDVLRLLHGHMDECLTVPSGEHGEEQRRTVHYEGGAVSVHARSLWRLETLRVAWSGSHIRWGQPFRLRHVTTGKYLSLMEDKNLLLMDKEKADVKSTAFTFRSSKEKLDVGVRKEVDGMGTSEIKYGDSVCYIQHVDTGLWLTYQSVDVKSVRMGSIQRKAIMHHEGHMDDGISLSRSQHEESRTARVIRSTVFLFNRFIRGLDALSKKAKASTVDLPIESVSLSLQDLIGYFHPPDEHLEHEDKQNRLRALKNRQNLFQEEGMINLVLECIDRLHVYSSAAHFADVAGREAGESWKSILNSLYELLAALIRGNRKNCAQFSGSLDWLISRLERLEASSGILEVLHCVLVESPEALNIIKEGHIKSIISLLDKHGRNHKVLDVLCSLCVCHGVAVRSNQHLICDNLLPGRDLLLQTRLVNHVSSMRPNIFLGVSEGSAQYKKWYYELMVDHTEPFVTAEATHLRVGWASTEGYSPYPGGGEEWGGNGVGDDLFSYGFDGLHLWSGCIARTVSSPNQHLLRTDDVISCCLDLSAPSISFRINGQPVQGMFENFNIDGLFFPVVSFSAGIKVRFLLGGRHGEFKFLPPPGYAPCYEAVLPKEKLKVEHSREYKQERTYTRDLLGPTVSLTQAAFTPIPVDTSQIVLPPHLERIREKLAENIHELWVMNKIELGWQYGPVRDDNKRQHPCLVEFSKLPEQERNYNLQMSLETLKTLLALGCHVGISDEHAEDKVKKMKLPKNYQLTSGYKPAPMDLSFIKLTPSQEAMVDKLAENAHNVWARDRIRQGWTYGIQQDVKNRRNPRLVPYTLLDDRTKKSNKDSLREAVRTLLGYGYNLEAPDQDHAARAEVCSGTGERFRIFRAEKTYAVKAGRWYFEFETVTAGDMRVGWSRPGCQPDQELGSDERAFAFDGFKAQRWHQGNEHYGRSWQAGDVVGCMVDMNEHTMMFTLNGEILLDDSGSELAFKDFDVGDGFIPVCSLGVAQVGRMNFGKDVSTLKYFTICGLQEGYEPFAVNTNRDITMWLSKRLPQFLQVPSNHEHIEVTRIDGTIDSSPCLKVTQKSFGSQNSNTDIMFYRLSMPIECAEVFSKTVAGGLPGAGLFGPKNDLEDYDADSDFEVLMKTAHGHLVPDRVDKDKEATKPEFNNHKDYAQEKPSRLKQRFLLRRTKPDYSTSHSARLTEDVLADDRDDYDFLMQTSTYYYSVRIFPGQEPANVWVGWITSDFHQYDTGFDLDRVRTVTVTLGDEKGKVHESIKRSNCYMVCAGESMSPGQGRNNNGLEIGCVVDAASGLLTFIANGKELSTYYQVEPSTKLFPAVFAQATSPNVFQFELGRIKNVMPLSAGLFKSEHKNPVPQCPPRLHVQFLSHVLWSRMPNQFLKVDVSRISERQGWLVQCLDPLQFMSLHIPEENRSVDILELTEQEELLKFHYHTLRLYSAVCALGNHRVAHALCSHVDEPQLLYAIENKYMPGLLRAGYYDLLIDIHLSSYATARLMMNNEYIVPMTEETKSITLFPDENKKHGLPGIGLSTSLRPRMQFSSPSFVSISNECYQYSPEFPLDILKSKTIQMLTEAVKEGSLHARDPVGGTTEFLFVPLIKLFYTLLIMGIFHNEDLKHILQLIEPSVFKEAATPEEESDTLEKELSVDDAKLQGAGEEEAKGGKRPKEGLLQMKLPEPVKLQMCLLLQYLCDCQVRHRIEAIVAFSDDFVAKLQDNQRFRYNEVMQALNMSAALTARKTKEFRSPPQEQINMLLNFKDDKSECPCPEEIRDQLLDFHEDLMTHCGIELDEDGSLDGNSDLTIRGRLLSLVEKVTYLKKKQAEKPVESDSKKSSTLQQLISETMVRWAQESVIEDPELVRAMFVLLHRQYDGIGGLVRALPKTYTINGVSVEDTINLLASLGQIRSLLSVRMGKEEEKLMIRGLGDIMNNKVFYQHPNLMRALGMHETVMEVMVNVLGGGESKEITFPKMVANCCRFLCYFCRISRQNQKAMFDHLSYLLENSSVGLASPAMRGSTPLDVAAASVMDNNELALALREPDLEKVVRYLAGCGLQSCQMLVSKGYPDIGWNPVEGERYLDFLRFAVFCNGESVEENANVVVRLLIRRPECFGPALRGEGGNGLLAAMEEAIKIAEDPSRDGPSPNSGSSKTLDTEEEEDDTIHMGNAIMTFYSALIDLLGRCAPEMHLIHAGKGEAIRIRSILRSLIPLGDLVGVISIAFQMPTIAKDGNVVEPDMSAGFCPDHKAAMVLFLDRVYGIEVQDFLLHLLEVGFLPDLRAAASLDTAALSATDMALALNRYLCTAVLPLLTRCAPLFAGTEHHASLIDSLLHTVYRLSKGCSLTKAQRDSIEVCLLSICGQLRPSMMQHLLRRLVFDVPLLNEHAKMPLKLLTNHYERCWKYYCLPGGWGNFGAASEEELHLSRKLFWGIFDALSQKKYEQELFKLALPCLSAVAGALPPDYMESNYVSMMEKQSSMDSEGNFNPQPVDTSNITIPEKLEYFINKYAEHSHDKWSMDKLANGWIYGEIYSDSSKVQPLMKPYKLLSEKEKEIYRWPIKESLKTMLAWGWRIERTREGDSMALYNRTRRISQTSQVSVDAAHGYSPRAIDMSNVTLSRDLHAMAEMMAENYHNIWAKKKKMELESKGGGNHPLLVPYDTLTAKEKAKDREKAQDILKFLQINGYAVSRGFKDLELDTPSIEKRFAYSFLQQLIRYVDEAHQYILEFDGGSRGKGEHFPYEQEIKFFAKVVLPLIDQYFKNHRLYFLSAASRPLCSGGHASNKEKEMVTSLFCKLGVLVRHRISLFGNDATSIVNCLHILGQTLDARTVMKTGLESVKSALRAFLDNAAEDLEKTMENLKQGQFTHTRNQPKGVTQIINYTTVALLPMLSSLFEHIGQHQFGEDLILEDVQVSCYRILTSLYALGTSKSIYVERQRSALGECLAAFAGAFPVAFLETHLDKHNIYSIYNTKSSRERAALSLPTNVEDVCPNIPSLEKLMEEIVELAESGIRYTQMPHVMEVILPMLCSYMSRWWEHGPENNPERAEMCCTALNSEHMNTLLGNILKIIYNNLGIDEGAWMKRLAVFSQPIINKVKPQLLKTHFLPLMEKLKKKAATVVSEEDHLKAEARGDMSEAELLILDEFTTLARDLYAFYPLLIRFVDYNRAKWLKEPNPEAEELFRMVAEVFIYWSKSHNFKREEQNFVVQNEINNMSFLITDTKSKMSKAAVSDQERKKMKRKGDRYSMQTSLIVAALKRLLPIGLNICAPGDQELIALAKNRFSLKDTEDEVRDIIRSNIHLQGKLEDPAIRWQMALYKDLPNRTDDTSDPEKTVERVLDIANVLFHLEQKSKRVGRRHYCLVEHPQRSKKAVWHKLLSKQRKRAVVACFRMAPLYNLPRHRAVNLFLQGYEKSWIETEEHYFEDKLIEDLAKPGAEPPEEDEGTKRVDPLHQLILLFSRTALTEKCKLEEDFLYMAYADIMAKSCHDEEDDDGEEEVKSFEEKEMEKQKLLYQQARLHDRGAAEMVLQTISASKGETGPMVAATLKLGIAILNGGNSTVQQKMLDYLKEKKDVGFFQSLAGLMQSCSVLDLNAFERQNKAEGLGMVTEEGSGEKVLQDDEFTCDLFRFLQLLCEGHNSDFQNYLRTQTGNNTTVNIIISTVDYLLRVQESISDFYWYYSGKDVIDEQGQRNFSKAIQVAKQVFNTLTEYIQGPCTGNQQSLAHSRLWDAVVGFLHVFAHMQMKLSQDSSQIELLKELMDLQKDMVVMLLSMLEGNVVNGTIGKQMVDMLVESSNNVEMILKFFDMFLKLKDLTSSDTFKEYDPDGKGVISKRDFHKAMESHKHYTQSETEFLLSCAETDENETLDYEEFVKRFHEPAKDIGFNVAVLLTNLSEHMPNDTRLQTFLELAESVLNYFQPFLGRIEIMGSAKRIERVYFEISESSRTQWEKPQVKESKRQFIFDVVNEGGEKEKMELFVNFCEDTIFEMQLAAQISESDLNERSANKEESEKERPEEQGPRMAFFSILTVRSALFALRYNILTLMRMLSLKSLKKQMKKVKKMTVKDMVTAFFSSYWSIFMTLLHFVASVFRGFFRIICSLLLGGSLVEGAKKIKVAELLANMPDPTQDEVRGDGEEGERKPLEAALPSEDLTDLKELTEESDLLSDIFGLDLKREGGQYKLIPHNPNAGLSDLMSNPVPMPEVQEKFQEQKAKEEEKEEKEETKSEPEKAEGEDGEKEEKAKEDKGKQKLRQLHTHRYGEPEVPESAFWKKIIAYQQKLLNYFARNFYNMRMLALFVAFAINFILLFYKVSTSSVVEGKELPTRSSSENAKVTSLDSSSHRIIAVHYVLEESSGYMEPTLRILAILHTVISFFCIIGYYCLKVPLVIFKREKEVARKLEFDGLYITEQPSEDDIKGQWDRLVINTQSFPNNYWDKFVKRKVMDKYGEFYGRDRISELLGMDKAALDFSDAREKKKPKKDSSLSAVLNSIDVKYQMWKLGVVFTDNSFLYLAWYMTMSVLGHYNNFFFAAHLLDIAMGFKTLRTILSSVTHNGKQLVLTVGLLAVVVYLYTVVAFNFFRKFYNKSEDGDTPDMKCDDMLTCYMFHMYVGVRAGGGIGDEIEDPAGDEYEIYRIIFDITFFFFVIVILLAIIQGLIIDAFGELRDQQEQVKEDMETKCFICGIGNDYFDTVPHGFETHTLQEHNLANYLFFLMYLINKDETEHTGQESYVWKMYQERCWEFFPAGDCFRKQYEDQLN

Experiments:
[1] = target: sarco-ER Ca^2+ ATPase 2 (SERCA2) (human (endogenous in HEK293)) (UniProt P16615); experiment: co-IP; reverse: HEK293 transfected with pMyc-SELT^U49C or pMyc for 48 h; immunoprecipitation with antibodies against SERCA2 or IP3R1 (IgG as control), protein A/G agarose; blot for Myc-SELT^U49C
[2] = target: Myc-tagged SELENOT^U49C (UniProt P62341); experiment: co-IP; HEK293 transfected with pMyc-SELT^U49C or pMyc for 48 h; immunoprecipitation of Myc-SELT^U49C (anti-Myc, IgG as control), protein A/G agarose; blots for SERCA2, IP3R1 and RYR2

| binding [1] | binding [2] | Substance |
| --- | --- | --- |
| binds |  | Myc-tagged SELENOT^U49C (from UniProt P62341) |
|  | no binding | ryanodine receptor 2 (RYR2) (from UniProt Q92736 1-4967) |

Results are given in words; binding and its absence hold for the method and conditions named. In cells and extracts the contact can be indirect. For some assays here: A result given as binding can be weak or reduced; the word gives no strength.
